From PMC5934406

Protein sequences, listed by entry. Tags and fused reporters are not part of them.
UniProt Q00613: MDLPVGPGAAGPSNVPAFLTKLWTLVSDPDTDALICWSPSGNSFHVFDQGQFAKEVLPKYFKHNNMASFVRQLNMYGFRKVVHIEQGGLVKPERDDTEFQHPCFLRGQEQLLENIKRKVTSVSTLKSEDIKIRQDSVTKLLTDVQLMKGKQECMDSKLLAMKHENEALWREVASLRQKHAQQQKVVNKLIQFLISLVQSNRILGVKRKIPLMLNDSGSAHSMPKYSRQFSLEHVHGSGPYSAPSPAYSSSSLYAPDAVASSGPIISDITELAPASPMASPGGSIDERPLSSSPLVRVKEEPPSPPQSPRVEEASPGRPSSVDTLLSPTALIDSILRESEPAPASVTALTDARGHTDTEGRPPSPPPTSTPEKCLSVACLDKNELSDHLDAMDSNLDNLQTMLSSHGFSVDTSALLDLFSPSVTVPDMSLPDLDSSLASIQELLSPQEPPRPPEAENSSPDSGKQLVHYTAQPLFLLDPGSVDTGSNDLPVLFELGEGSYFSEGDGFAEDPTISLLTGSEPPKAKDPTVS

Target: FLAG-HSF1 DEL183–214 (human) (UniProt Q00613)
Experiment: co-IP; HEK293 co-transfected with WT HA-HSF1 and FLAG-HSF1 constructs; anti-FLAG IP, HA WB

HA-HSF1 (wild type Heat shock factor 1) (from UniProt Q00613 1-529)
binding: no binding

Results are given in words; binding and its absence hold for the method and conditions named. In cells and extracts the contact can be indirect.
